According to PubChem BioAssay AID624297 (National Center for Advancing Translational Sciences (NCATS), 2012):
Hit rate of the full screen: of about 340,000 compounds, about 6,200 (1.8%) were called active. The inconclusive results got no clear call from the source; some entries with a clear call stand among them for comparison. Calls come from the whole dose curve; as a rule, active = well fitted activation curve with a large enough effect; inconclusive = small, poorly fitted or top-dose-only effect; inactive = no such curve, though single readings can be large or run the other way. Potencies of inconclusive entries are doubtful fits and often do not repeat.

experiment: A quantitative high throughput screen for small molecules that induce DNA re-replication in SW480 colon adenocarcinoma cells.; note: nearly all actives have a fitted effect of over 55% in size; conditions: Hoechst DNA content imaging, 48 h; series mostly up to 46.1 µM
How it was run: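 Cells (250 per well) received 23 nL compound or DMSO by pin tool and were kept 48 hr at 37 C, 5% CO2. Nuclei were then stained with Hoechst for 40 min and scanned for DNA content.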
Potency is the fitted concentration of half-maximal effect.

Row | Compound | Potency
1 | N#CC1=C(N)Oc2cc(N)ccc2C1c1ccccc1 (stereo not drawn) | inconclusive: 29.1 µM [activator, single point]
2 | COc1ccc(-c2cn3cc(C)ccc3n2)cc1F | inconclusive: 29.1 µM [activator, single point]
3 | c1ccc(CCN2CCN(c3ncnc4c3cnn4-c3ccccc3)CC2)cc1 | inactive
4 | COc1ccc(C(=O)N[C@H](C(=O)NCCc2ccc3c(c2)OCCO3)C(C)C)cc1 | inactive
5 | CCN1CCCC1CNCC(=O)Nc1ccc(OC(F)(F)F)cc1 (stereo not drawn) | inconclusive: 4.61 µM [activator, partial curve, poor fit]
6 | C/C(=N\NC(N)=S)c1ccc2c(c1)OCCO2 | inactive
7 | Cc1c(C)c2c(OCC(=O)N3CCC(O)CC3)cc3c(c2oc1=O)CCC(C)(C)O3 | inactive
8 | c1ccc(CN2CCOCC2)cc1 | inconclusive: 29.1 µM [activator, single point]
9 | CN(C)/C=C/C(=O)/C=C/c1cn(-c2ncc(C(F)(F)F)cc2Cl)c2ccccc12 | inconclusive: 29.1 µM [activator, single point]
10 | O=c1[nH]c(CN2CCN(c3ccccc3)CC2)nc2scc(-c3ccccc3)c12 | inconclusive: 0.103 µM [activator, full curve, poor fit]
11 | CC(C)C1Cc2c(sc3[nH]c(=S)n(Cc4ccccc4)c(=O)c23)CO1 (stereo not drawn) | inconclusive: 20 µM [activator, single point]
12 | CCOc1cccc(CN2CCCC(C(=O)c3cccc(C(F)(F)F)c3)C2)c1O (stereo not drawn) | inconclusive: 29.1 µM [activator, single point]
13 | O=c1c2ccccc2nc(-c2ccccc2)n1O | inconclusive: 29.1 µM [activator, single point]
14 | Cc1ccc(CONC(=O)c2ccc(OC(F)F)cc2)cc1 | inactive
15 | [O-]c1n[n+](-c2ccc(Cl)cc2)cc2ccccc12 | inconclusive: 16.4 µM [activator, partial curve, poor fit]
16 | Cn1nccc1C(=O)Nc1ccc(S(=O)(=O)N2CCCC2)cc1 | inactive
17 | CC(C)C(Cl)=NOC(=O)Nc1ccc(S(N)(=O)=O)cc1 | inconclusive: 29.1 µM [activator, single point]
18 | Cc1cc(C(=O)NNC(=O)c2sccc2C)c(C)o1 | inactive
19 | Cc1cc(Oc2ccccc2)nc(NCc2ccccc2)n1 | inconclusive: 29.1 µM [activator, partial curve, poor fit]
20 | COc1ccc2nc(NC(=O)CN(c3ccc(C)cc3)S(=O)(=O)c3c(C)nn(C)c3C)sc2c1 | inconclusive: 29.1 µM [activator, partial curve, poor fit]
21 | Cn1nnc(NC(=S)NC(=O)c2cccc3ccccc23)n1 | inconclusive: 29.1 µM [activator, single point]
22 | CC1Cc2ccccc2N1C(=S)Nc1cccc(S(=O)(=O)N(C)C)c1 (stereo not drawn) | inconclusive: 32.6 µM [activator, partial curve, poor fit]
23 | O=C(CN(Cc1ccco1)C(=O)c1ccccc1F)Nc1ccccc1C(F)(F)F | inconclusive: 6.51 µM [activator, single point]

Row | Compound | Potency
24 | N#C/C(=N/Nc1ccccc1F)C(=N)N1CCOCC1 | inactive
25 | COc1ccc(/C=C/C(=O)Nc2ccccc2F)cc1S(=O)(=O)N1CCOCC1 | inconclusive: 29.1 µM [activator, single point]
26 | CSc1nc(C)cc(-n2ccc(=O)[nH]c2=O)n1 | inconclusive: 29.1 µM [activator, partial curve, poor fit]
27 | COCCNC(=O)c1onc(CSc2ccc(F)cc2)c1C(=O)NCCOC | inconclusive: 1.16 µM [activator, single point]
28 | Cc1ccc(C(=O)CSc2nnc(COc3cccc4cccnc34)o2)cc1 | inactive
29 | O=C(NC1(C(F)(F)F)NC(=O)N(c2ccc(F)cc2)C1=O)c1cccs1 (stereo not drawn) | inconclusive: 8.2 µM [activator, partial curve, poor fit]
30 | COc1ccc(OC)c(CNC(=O)CCC(=O)N2Cc3cccc(OC)c3Oc3ncccc32)c1 | inactive
31 | Cc1ccc(-n2c(SCC(N)=O)nnc2-c2ccc(S(=O)(=O)N3CCCCC3)cc2)c(C)c1 | inconclusive: 5.8 µM [activator, partial curve]
32 | CCN1CCN(C(=O)c2ccc(CNS(=O)(=O)c3cccc(OC)c3)cc2)CC1 | inactive
33 | CCn1ncc(/C=N/NC(=O)c2ccc3c(c2)OCO3)c1C | inconclusive: 29.1 µM [activator, single point]
34 | COc1cc(OC)cc(-c2nc(-c3cc4cc(C)ccc4nc3OC)no2)c1 | inconclusive: 3.66 µM [activator, single point]
35 | Cc1ccc(-c2csc3ncnc(Sc4nnc(CN5CCCCCC5=O)o4)c23)cc1 | inconclusive: 29.1 µM [activator, single point]
36 | O=C(/C=C/NNC(=O)c1ccc(Br)cc1)c1ccccc1 | inconclusive: 32.6 µM [activator, partial curve, poor fit]
37 | CSc1nc(N2CCOCC2)nc2ccc(C)cc12 | inconclusive: 23.1 µM [activator, single point]
38 | CCOC(=O)c1c(-c2ccccc2)csc1NC(=O)CSc1nc(N)cc(N)n1 | inactive
39 | CCc1cccc(NC(=O)Nc2ccc3c(c2)OCO3)c1 | inactive
40 | CN(C)CCC(c1ccc(Cl)cc1)c1ccccn1 (stereo not drawn) | inconclusive: 0.92 µM [activator, single point]
41 | CCN(CC)CCNC(=O)c1[nH]c2ccc(OCc3ccccc3)cc2c1C | inconclusive: 29.1 µM [activator, single point]
42 | O=C1C(=C2CCCCC2)SC(=S)N1Cc1ccco1 | inconclusive: 25.9 µM [activator, single point]
43 | Cc1nc(N)ncc1Sc1ccc(Cl)cc1 | inconclusive: 2.59 µM [activator, single point]
44 | O=C(c1cccc(C(F)(F)F)c1)C1CCCN(C(=O)CCc2cnccn2)C1 (stereo not drawn) | inconclusive: 18.4 µM [activator, partial curve, poor fit]
45 | O=C(NCCc1ccc(Cl)cc1)c1ccc2ccccc2n1 | inconclusive: 4.11 µM [activator, full curve, poor fit]
46 | Cc1ccc(C2CC(C(F)F)n3ncc(C(=O)Nc4c(C)nn(Cc5c(F)cccc5Cl)c4C)c3N2)cc1 (stereo not drawn) | inconclusive: 23.1 µM [activator, partial curve, poor fit]

Structures listed so far that contain a CF3 group, in the order listed:
Row | Compound | Potency
5 | CCN1CCCC1CNCC(=O)Nc1ccc(OC(F)(F)F)cc1 (stereo not drawn) | inconclusive: 4.61 µM [activator, partial curve, poor fit]
9 | CN(C)/C=C/C(=O)/C=C/c1cn(-c2ncc(C(F)(F)F)cc2Cl)c2ccccc12 | inconclusive: 29.1 µM [activator, single point]
12 | CCOc1cccc(CN2CCCC(C(=O)c3cccc(C(F)(F)F)c3)C2)c1O (stereo not drawn) | inconclusive: 29.1 µM [activator, single point]
23 | O=C(CN(Cc1ccco1)C(=O)c1ccccc1F)Nc1ccccc1C(F)(F)F | inconclusive: 6.51 µM [activator, single point]
29 | O=C(NC1(C(F)(F)F)NC(=O)N(c2ccc(F)cc2)C1=O)c1cccs1 (stereo not drawn) | inconclusive: 8.2 µM [activator, partial curve, poor fit]
44 | O=C(c1cccc(C(F)(F)F)c1)C1CCCN(C(=O)CCc2cnccn2)C1 (stereo not drawn) | inconclusive: 18.4 µM [activator, partial curve, poor fit]

The listing continues.

Row | Compound | Potency
47 | COc1ccc(-c2c3c(nc4sc(C(=O)Nc5ccccc5)c(N)c24)CCC3)cc1 | inconclusive: 2.59 µM [activator, full curve]
48 | CCOC(=O)c1ccc(N2C(=O)CC(N3CCN(C/C=C/c4ccccc4)CC3)C2=O)cc1 (stereo not drawn) | inactive
49 | COc1ccc(NC(=O)c2nn(C)cc2[N+](=O)[O-])cc1 | inconclusive: 9.2 µM [activator, partial curve, poor fit]
50 | N/C(=N\OC(=O)c1ccc(Cl)c([N+](=O)[O-])c1)c1ccccn1 | inconclusive: 23.1 µM [activator, single point]
51 | CCCCC1=CC2=C(c3ccco3)C(=O)C(C)(OC(=O)c3ccc(OC)cc3)C(=O)C2=CN1CCCN(CC)CC (stereo not drawn) | inconclusive: 14.6 µM [activator, partial curve]
52 | Cc1ccc(S(=O)(=O)/N=C2/C=C(Sc3ncn[nH]3)C(=O)c3ccccc32)cc1 | active: 8.2 µM
53 | O=C(/C=C/c1cccc([N+](=O)[O-])c1)c1ccc([N+](=O)[O-])o1 | inconclusive: 1.03 µM [activator, full curve, poor fit]
54 | Fc1ccc(-c2nc3n(n2)Cc2ccccc2-3)cc1 | inactive
55 | O=C(c1ccccc1)N1CCCCC(S(=O)(=O)c2ccc3ccccc3c2)C1=O (stereo not drawn) | inactive
56 | COc1cc2c(cc1OC)C(SC)=NC1(CCCC1)C2 | inconclusive: 29.1 µM [activator, single point]
57 | CN(C)Cc1cc(C(F)(F)F)ccc1C(O)(c1ccccc1)c1ccccc1 | inconclusive: 20.6 µM [activator, single point]
58 | COc1cccc(CCNC(=O)CC2C(=O)NCCN2Cc2ccc(C)o2)c1 (stereo not drawn) | inconclusive: 29.1 µM [activator, single point]
59 | O=C(NCc1cn(-c2ccccc2)nc1-c1ccc(F)cc1)c1cccc([N+](=O)[O-])c1 | inconclusive: 32.6 µM [activator, single point]
60 | COc1ccc(Cn2nnc3c(=O)[nH]c(C4CCN(S(=O)(=O)c5ccc(C)cc5)CC4)nc32)cc1 | inconclusive: 29.1 µM [activator, single point]
61 | Cc1ccc(C(=O)OCC(=O)c2c[nH]c3ccccc23)cc1 | inactive
62 | CC(=O)c1ccc(OCCCC(=O)Nc2cc(S(=O)(=O)N(C)C)ccc2C)cc1 | active: 16.4 µM
63 | CCOc1ccccc1NC(=O)CCN1CCN(S(=O)(=O)c2ccc(OC)cc2)CC1 | inconclusive: 0.366 µM [activator, full curve, poor fit]
64 | Cc1nnc(SCC(=O)Nc2ccc(S(N)(=O)=O)cc2)n(N)c1=O | inactive
65 | Cc1ccc(CCNC(=O)CNC(=S)N(Cc2ccccc2)Cc2cccnc2)cc1 | inactive
66 | CCN(CC(=O)Nc1ccc(NC(C)=O)cc1)C(=O)c1ccc(=O)n(C)n1 | inactive
67 | COc1ccccc1-c1cc(C(F)(F)F)nc(S(=O)(=O)CCCC(=O)NCc2ccc(F)cc2)n1 | inconclusive: 13 µM [activator, partial curve, poor fit]
68 | O=C(Nc1ccccc1C(=O)NC(Cc1ccccc1)C(=O)O)c1ccco1 (stereo not drawn) | inactive
